# Hit rate of the full screen: of about 320,000 compounds, about 2,100 (0.66%) were called active. Inconclusive results, whose numbers are uncertain, are shown with a selection of clear calls. The call rests on the fitted dose curve; in most records, active means well fitted inhibition curve with a large enough effect in the signal ratio, with a control signal flat (not every such curve was filed as active); inconclusive means small, poorly fitted or top-dose-only effect, or effect the other way, or a change in a side signal; inactive means flat fitted curve, though single readings scatter; the % refers to the signal ratio. A potency beside an inconclusive call is a rough fit, not a confirmed value.
# Test: qHTS Assay for Lipid Storage Modulators in Drosophila S3 Cells
# Settings: BODIPY lipid droplet fluorescence, 18-24 h, cells fed with added oleic acid; lipid storage change, negative = inhibition: at 46.1 µM (top of the series) unless noted
# Procedure, shortened: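 Drosophila S3 cells loaded with oleic acid (400 uM, as added) and compounds at several concentrations; lipid droplets imaged by 488-nm laser-scanning cytometry, 500–530 nm intensity and object ratio to cell channel. Percent activity normalized to 20 uM Triacsin C.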
# On the % scale 0 is the no-effect control and ±100 the full control effect; potency means the concentration at half of the fitted maximal effect.
Structure (SMILES),Potency,"lipid storage change, negative = inhibition"
Cc1cccc(C(=O)Nc2ccc(CC(=O)O)cc2)c1,"inconclusive: 0.0046 µM [falling, full curve, poor fit]",
CC(C)N(CCCNC(=O)c1ccc(CS(=O)(=O)c2c(Cl)cccc2Cl)o1)Cc1ccccc1,,inconclusive: 36.3%
COC(=O)C1CCN(C(=O)c2cc(S(=O)(=O)N3CCCCC3)ccc2Cl)CC1,"inconclusive: 3.26 µM [falling, full curve]",
CNC(=O)c1ccc(NC(=O)c2cccc(C(F)(F)F)c2)cc1,"inconclusive: 0.0052 µM [falling, full curve, poor fit]",
CC/C(=C(\c1ccccc1)c1ccc(OCCN(C)C)cc1)c1ccccc1,"inconclusive: 29.1 µM [cytotoxic, single point]",
COc1ccc(-c2c(-c3cc(OC)cc(OC)c3)n(C)c3ccc(-c4ccc(SC)cc4)cc23)cc1,,inconclusive: 16.1%
COc1ccc(C(CC(=O)O)NS(=O)(=O)c2ccc(C)cc2)cc1 (stereo not drawn),active: 2.91 µM,
COc1ccc(-n2ncc3c(=O)n(CC(=O)OCc4ccccc4)cnc32)cc1,,inconclusive: 18.2%
Cc1ccc2c(c1)c1c3n2CCN=C3CCC1,,inconclusive: -17.6%
O=C(O)c1ccccc1-n1cnnn1,,inactive: -27.2%
O=C(N/N=C/c1ccc2c(c1)OCO2)c1cc(-c2ccccc2)nc2ccccc12,"inconclusive: 2.31 µM [activator, full curve]",
Fc1ccccc1-c1csc(=Nc2cccnc2)n1CC1CCCO1 (stereo not drawn),,inconclusive: -33.9%
COc1cc(C(=S)N2CCN(C)CC2)ccc1OCC(=O)NCc1ccccc1,"inconclusive: 0.116 µM [activator, full curve, poor fit]",
CC(/C=C/c1ccccc1)=N/NC(=O)CCC(=O)Nc1ccccc1C,,inconclusive: 51%
CC(=O)N1CCN(S(=O)(=O)c2cccc(C(=O)NNC(=O)COc3ccc(Cl)cc3C)c2)CC1,,inconclusive
OC(COCC1CC=CCC1)Cn1cnc2ccccc21 (stereo not drawn),,inconclusive: 8.93%
COCCn1c(C)nnc1SCC(=O)Nc1ccccc1[N+](=O)[O-],,inconclusive: 5.7%
O=C(NCCO)/C(=C/c1cccc([N+](=O)[O-])c1)NC(=O)c1ccco1,,inconclusive: 7.2%
Cc1ccc(C(=O)CN(CCC(=O)O)C(=O)c2ccncc2)cc1,,inconclusive: 18%
O=C(OCC(=O)N1CCOCC1)c1ccccc1O,,inconclusive: 93.6%
O=C(CCOc1ccccc1F)N1CCN(c2ccccc2O)CC1,,inconclusive: -3.69%
NCc1ccc(S(N)(=O)=O)cc1,,inconclusive: -4.81%
CC(=O)Nc1ccc(N/C=C/C(=O)c2ccccc2)cc1,,inconclusive: -40.3%
O=C(C1=C[C@@H](c2csc3ccccc23)C[C@@H](OCc2ccc(CO)cc2)O1)N1CCN(Cc2ccc3c(c2)OCO3)CC1,"inconclusive: 29.1 µM [falling, single point]",
Cc1cc(S(=O)(=O)N2CCN(c3ccccn3)CC2)ccc1F,,inconclusive: -41.1%
COc1ccc(C(=O)NCc2ccc(C(=O)NCC(OC)OC)cc2)cc1OC,,inconclusive: -0.164%

# Among those listed so far, two have a nitro group on carbon.
Structure (SMILES),Potency,"lipid storage change, negative = inhibition"
COCCn1c(C)nnc1SCC(=O)Nc1ccccc1[N+](=O)[O-],,inconclusive: 5.7%
O=C(NCCO)/C(=C/c1cccc([N+](=O)[O-])c1)NC(=O)c1ccco1,,inconclusive: 7.2%

# Next records.

Structure (SMILES),Potency,"lipid storage change, negative = inhibition"
COc1ccc(C=C2c3ccccc3C(=O)c3ccccc32)c(OC)c1,,inconclusive: -5.41%
CCCCC(=O)Nc1cccc(C(C)O)c1 (stereo not drawn),,inconclusive: -31.4%
O=C(c1ccc2c(=O)n(Cc3ccc(Cl)cc3)c(=S)[nH]c2c1)N1CCCC1,"inconclusive: 0.731 µM [activator, full curve]",
CCN(CC)S(=O)(=O)c1ccc(N2CCOCC2)c(NC(=O)C2CC2)c1,,inconclusive
COc1cccc(-c2c(-c3cc(OC)cc(OC)c3)n(C)c3ccc(-c4cnc(OC)nc4)cc23)c1,,inconclusive: 16.8%
O=C(Cn1ccnc1)c1ccc(O)c(O)c1,"inconclusive: 18.4 µM [activator, partial curve, poor fit]",
COc1ccc(OC)c(/C=N/NC(=O)c2ccncc2)c1,"inconclusive: 6.51 µM [activator, single point]",
Cc1nc(NC(=O)c2ccc(Cl)cc2)nc2cc3c(cc12)OCO3,"inconclusive: 0.0291 µM [activator, full curve, poor fit]",
CC(O)C(=O)N/N=C/c1cccc2ccccc12 (stereo not drawn),,inconclusive: 13.7%
CCC(=O)c1ccc(N2CCN(S(=O)(=O)c3ccccc3)CC2)c(F)c1,,inconclusive: 24.8%
CCOC(=O)c1c(C)[nH]c(=S)c(C#N)c1-c1ccccc1,,inconclusive: 10.6%
CC1CCCCC1NC(=O)CN(C)S(=O)(=O)c1ccc2c(c1)CCC(=O)N2 (stereo not drawn),,inconclusive: 40.1%
Cc1cc(=O)c(C(=O)Nc2cccc(C(=O)NC3CC3)c2)nn1-c1ccccc1Cl,"inconclusive: 16.4 µM [activator, partial curve]",
CCOc1cc(C2CC(=O)Nc3cc(C)c(C)cc32)ccc1O (stereo not drawn),"inconclusive: 1.16 µM [activator, full curve]",
Cc1ccc(CNc2nc(C)cs2)cc1,,inconclusive: 39%
CC1CCCC(C)N1S(=O)(=O)c1ccc(NC(=O)CNCC2CCCO2)cc1 (stereo not drawn),,inconclusive: -9.66%
Cc1ccsc1/C=N/NC(=O)c1ccco1,,inconclusive: 64%
Cc1cc(C(=O)Cn2nc(C(=O)O)c3ccccc3c2=O)c(C)n1-c1ccc(OC(F)F)cc1,"inconclusive: 0.0052 µM [rising, full curve, poor fit]",
COc1ccccc1OCCCCCNCCO,,inconclusive: 39.7%
CC(C)n1c(-c2ccccc2)nc(=S)c2c1CCCC2,,inconclusive: -3.28%
COc1ccc(-n2c(C)nc3c(cnn3-c3ccc(C)cc3)c2=O)cc1,,inconclusive: -3.25%
O=C(CN1CCCCC1)N1CCN(C(=O)CN2CCCCC2)CC1,,inconclusive: 37.7%
O=C(OCCN1CCCCC1)c1cccc(Cl)c1,,inconclusive: -13.1%
Cc1c(-n2c(-c3ccccc3Cl)n[nH]c2=S)c(=O)n(-c2ccccc2)n1C,,inconclusive: -49.6%
COc1ccc(Cn2ccnc2SCC(=O)Nc2ccccc2F)cc1,,inconclusive: 9.4%
NS(=O)(=O)c1ccc(CCNC(=O)CN2CCN(Cc3cccc(C(F)(F)F)c3)CC2)cc1,"inconclusive: 20.6 µM [falling, single point]",

# Copied from the list.
# CC(O)C(=O)N/N=C/c1cccc2ccccc12 (stereo not drawn) | lipid storage change, negative = inhibition: inconclusive: 13.7%
# Cc1ccc(CNc2nc(C)cs2)cc1 | lipid storage change, negative = inhibition: inconclusive: 39%
# CC(C)n1c(-c2ccccc2)nc(=S)c2c1CCCC2 | lipid storage change, negative = inhibition: inconclusive: -3.28%
# NS(=O)(=O)c1ccc(CCNC(=O)CN2CCN(Cc3cccc(C(F)(F)F)c3)CC2)cc1 | Potency: inconclusive: 20.6 µM [falling, single point]

# Later entries

Structure (SMILES),Potency,"lipid storage change, negative = inhibition"
O=C(OCc1nc(-c2ccccc2Cl)no1)c1ccco1,,inactive: 27%
COc1ccc2nc(SC(C)C(=O)NC3CCCCC3)[nH]c2c1 (stereo not drawn),"inconclusive: 0.0731 µM [falling, full curve, poor fit]",
O=C(COC(=O)c1ccc(S(=O)(=O)Nc2ccccc2)cc1)NCCC1=CCCCC1,"inconclusive: 0.0052 µM [falling, full curve, poor fit]",
COCCNc1nc(C)c(C(C)=O)s1,,inconclusive: -50.8%
COc1nonc1NCn1nc(C)cc1C,,inconclusive: 9.77%
O=C(CCCn1c(=O)c2ccccc2n(Cc2ccccc2)c1=O)NCc1ccco1,,inconclusive: -43.2%
O=C1Nc2ccccc2C(=O)C1(Cl)Cc1ccccc1 (stereo not drawn),"inconclusive: 23.1 µM [falling, single point]",
CC(=O)Nc1ccc(NC(=O)c2ccc(C3SCC(=O)N3CCc3ccccc3)cc2)cc1 (stereo not drawn),,inconclusive: -11%
COc1ccc(S(=O)(=O)N2CCN(C(=O)c3ccco3)CC2)cc1C(C)(C)C,,inconclusive: 7.02%
O=C(COc1ccccc1Br)Nc1ccc(S(=O)(=O)N2CCCC2)cc1,"inconclusive: 7.31 µM [falling, single point]",
O=C(CN1CCN(Cc2ccccc2)CC1)NNC(=O)c1ccccc1,"inconclusive: 0.651 µM [falling, single point]",
O=C(NCCN1C(=O)C2C3C=CC(C3)C2C1=O)Nc1cccnc1 (stereo not drawn),"inconclusive: 29.1 µM [falling, single point]",
COc1cccc(C2c3[nH]c4ccccc4c3CCN2Cc2ncc[nH]2)c1 (stereo not drawn),,inconclusive: -29.1%
Cc1ccc(N(CC(=O)NC(C)(C)C)C(=O)CCC(=O)Nc2nccs2)c(C)c1,,inconclusive: -36.3%
O=C(Nc1c(C(=O)N2CCOCC2)cnn1-c1ccccc1)c1ccc(F)cc1,,inconclusive: 22.7%
C=CCNC(=O)CN1CCN(Cc2ccc3c(c2)OCO3)CC1,,inconclusive: -2.31%
CC(=O)N1CCN(c2ccc(NC(=O)c3ccc(Cl)cc3)cc2)CC1,,inconclusive: -54.7%
Cc1cc(N2CCN(S(=O)(=O)c3ccccc3)CC2)nc2c(C)cccc12,,inconclusive: -4.19%
S=C1NC2(CCCCCC2)N=C1c1ccccc1,,inconclusive: -2.84%
C=CCN1CC2CC3(COc4cc(C)cc(C)c4)C=CC2(O3)C1=O (stereo not drawn),,inconclusive: 24.5%
CCc1ccccc1Nc1nc(N)nc(COC(=O)CCC(=O)c2ccc(F)cc2)n1,"inconclusive: 6.51 µM [activator, single point]",
COc1ccc(-c2cn(Cc3ccc4c(c3)C(=O)c3ccccc3C4=O)nn2)cc1,"inconclusive: 8.2 µM [activator, partial curve]",
CN1CCN(C(=O)c2ccc(Cl)c(S(=O)(=O)N3CCCCCC3)c2)CC1,,inconclusive: -70.6%
CCOc1ccccc1NC(=O)C(OC(=O)c1ccc(NC(=O)CC#N)cc1)c1ccccc1 (stereo not drawn),,inconclusive
COCCCNc1oc(-c2ccccc2Cl)nc1C#N,,inconclusive: -4.92% [at 9.22 µM]
CC1C=CCC2C(=O)N(c3ccc(OC(=O)c4ccco4)cc3)C(=O)C12 (stereo not drawn),"inconclusive: 1.64 µM [falling, single point]",
